These are yes or no findings as the source states them, for the method shown. Some entries that bind do so weakly or less than the wild type.
What was measured:
[1] = target: T1, human 5T4 on cells (human) (UniProt Q13641); experiment: FACS, CHO cells over expressing human 5T4
T1 sequence (looked up): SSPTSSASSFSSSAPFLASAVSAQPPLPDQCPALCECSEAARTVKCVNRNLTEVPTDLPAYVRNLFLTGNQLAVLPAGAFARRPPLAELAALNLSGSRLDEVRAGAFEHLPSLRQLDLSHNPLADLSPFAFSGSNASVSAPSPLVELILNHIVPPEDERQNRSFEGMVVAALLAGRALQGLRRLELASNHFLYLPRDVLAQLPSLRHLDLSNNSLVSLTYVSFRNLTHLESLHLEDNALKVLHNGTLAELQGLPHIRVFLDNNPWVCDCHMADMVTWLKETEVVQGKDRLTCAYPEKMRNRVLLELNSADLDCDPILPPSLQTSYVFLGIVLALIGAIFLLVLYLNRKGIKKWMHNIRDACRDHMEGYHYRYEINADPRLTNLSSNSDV

By UniProt entry, the sequences of proteins in these tests, tags left out. Residues count along the entry.
UniProt Q4R8Y9, residues 35-420: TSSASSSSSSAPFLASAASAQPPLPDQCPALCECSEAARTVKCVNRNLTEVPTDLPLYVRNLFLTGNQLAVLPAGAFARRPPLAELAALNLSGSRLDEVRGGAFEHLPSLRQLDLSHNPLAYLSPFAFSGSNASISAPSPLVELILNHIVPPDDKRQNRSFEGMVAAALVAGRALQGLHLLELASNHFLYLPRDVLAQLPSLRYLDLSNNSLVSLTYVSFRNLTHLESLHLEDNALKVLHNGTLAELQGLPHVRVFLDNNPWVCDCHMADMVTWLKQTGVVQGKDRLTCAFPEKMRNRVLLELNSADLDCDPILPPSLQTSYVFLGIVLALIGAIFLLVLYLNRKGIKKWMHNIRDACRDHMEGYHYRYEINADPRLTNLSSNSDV

[2] = target: cyno 5T4 on CHO cells (cyno) (UniProt Q4R8Y9); experiment: FACS, CHO cells over expressing cyno 5T4
[3] = target: T1, human 5T4 on cells (human); experiment: FACS, MCF-7 cells
[4] = target: recombinant human 5T4 ECD protein fused to human Fc (human) (UniProt Q13641); experiment: ELISA, coated 5T4 antigen

Measured: binding

B1: mAb003 (antibody, V domains shown)
VH: QVQLQQSGAELMKPGASVKLSCKATGYTFTGYWIEWVKQRPGHGLEWIGEILPGRDSTNSNEKFKGKATFTADTSSNTVYMQLSSLTTEDSAIFYCARGYRDFDYWGQGTTLTVSS
VL: DIVMTQSQKFMSTTVGDRVSIICKASQNVGTAVAWYQQKPGQSPKVLIYSASNRYTGVPDRFTGSGSGTDFTLTISNMQSEDLADYFCQQYSSYPRTFGGGTKLEIK
binds: [1] | [2] | [3]

B2: mAb005 (antibody, V domains shown)
VH: EVQLVESGGGLVQPKGSLQLSCAASGFTFNTYAMHWVRQAPGKGLEWVARIRSKSSNYATYYADSVKDRFTISRDDSQSMLYLQMNNLKTEDTAMYYCVRDGDYYYGSRPSYWYFDVWGTGTTVTVSS
VL: DILLTQSPAILSVSPGERVSFSCRASQSIGTNIHWYQQRTNGSPRLLIKYASESISGIPSRFSGSGSGTDFTLSINNVESEDIADYYCQQTNTWPLTFGAGTKLDLK
binds: [1] | [4] | [2] | [3]

Reference: patent publication US20240228658A1
